The subject of the series is A549 cells. Nature of the series: RNA-sequencing. Format: cell-based, human. Conditions: 10 μM, 12 h.

In the case of `F[P-](F)(F)(F)(F)F.F[P-](F)(F)(F)(F)F.[Ru+2].c1ccc2c(c1)[nH]c1c(-c3ncc[nH]3)nccc12.c1cnc2c(c1)ccc1cccnc12.c1cnc2c(c1)ccc1cccnc12` [Ru5], the DEGs down-regulated is on record as 844 and the DEGs up-regulated worked out at 673. Further, for the setting “|Fold change| ≥ 2.0, FDR ≤ 0.05”, the “Total number of DEGs” value was determined as 1517.

Values taken from paper PMC11304990, “Identification of mitochondrial ATP synthase as the cellular target of Ru-polypyridyl-β-carboline complexes by affinity-based protein profiling” (National Science Review, 2024).
